Test [1] addresses T1, MYC-tagged sodium iodide symporter (NIS-MYC) (UniProt Q92911).
T1 sequence: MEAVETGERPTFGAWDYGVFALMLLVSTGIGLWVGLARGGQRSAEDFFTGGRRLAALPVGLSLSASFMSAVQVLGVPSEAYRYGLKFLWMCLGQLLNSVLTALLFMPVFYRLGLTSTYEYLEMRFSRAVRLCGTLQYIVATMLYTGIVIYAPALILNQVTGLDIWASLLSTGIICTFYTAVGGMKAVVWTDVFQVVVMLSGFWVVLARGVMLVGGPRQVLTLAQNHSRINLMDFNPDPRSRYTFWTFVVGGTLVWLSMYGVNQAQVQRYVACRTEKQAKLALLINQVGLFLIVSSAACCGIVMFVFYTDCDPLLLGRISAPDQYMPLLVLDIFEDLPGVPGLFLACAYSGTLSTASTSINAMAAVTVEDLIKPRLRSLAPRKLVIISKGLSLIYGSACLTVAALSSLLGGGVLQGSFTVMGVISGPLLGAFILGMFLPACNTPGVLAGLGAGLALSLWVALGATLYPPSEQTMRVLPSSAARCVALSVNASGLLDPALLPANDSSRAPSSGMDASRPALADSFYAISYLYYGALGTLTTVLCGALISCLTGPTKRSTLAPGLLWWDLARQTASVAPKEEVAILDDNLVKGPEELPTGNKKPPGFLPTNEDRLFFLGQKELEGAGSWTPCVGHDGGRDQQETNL
The test can be described thus: proximity ligation; Duolink In Situ Kit; COS-7 cells transfected with NIS-MYC and PBF-HA (or Y174A), pervanadate 100 μM for 15 min before fixation; mouse anti-myc with rabbit anti-HA or rabbit anti-PBF-pY174; also after PP1 (2 μM, 24 h) or vehicle.

For test [2], the target named is T1, MYC-tagged sodium iodide symporter (NIS-MYC). The test can be described thus: co-IP; HeLa cells transfected with PBF-HA and NIS-MYC; IP of NIS-MYC, blot with the pY174 antibody.
Test [3] shares this target. The test can be described thus: co-IP; COS-7 cells transfected with NIS-MYC and VO, PBF-HA or Y174A; IP of NIS-MYC with mouse anti-Myc, blot with mouse anti-HA.

No constants are given. Whether binding was seen depends on the method and setting. In cells and extracts the contact can be indirect. Some results given as binding are weak or reduced against the parent protein; the word gives no strength. Sequences can lack the tags named with a protein.

B1: PBF phosphorylated at tyrosine 174 (PBF-pY174) (protein, UniProt P53801 33-180)
chain: QEPPGAACSQNTNKTCEECLKNVSCLWCNTNKACLDYPVTSVLPPASLCKLSSARWGVCWVNFEALIITMSVVGGTLLLGIAICCCCCCRRKRSRKPDRSEEKAMREREERRIRQEERRAEMKTRHDEIRKKYGLFKEENPYARFENN
modifications: phosphotyrosine at 174
B1: the binding result in test [1] and in test [2] was “binds” each time.

B2: HA-tagged pituitary tumor-transforming gene-binding factor (PBF-HA), wild type (protein, UniProt P53801 33-180)
chain: B1 chain
Take B2: the binding result in test [3] and in test [1] was “binds” in each case.

(Values after PMC4207948.)
